# Experimental data reported in the supplement of paper PMC3334620.
# Whole data set: some 33,000 sequences, median “E-score (-0.5 to 0.5)” near -0.0014, cut for the highest 2% near 0.25. Some of the results follow.
# Target: T1, Cad1 (UniProt P24813)
# T1 sequence: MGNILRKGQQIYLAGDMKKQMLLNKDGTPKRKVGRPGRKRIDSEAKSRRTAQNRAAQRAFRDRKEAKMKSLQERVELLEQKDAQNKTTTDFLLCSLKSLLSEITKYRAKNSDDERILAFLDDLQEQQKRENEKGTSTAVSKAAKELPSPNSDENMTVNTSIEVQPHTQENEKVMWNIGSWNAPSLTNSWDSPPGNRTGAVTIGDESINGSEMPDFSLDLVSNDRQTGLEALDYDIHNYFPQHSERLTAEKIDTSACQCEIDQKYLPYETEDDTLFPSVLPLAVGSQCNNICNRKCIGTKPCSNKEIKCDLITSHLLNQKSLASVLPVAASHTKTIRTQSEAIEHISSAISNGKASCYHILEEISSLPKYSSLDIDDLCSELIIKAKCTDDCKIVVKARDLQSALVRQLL
# Assay: PBM E-score (8-mer binding enrichment) (E-score (-0.5 to 0.5)); higher = stronger / more preferred TF binding
# Details: protein concentration: 100 nM; construct: GST-full length
# Procedure, shortened: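 Universal all-10-mer Agilent arrays, double-stranded by primer extension on fresh or once-stripped slides, were probed with about 100-200 nM GST-tagged yeast transcription factors made by PURExpress. Fluorescent anti-GST detected bound protein, and masliner normalised the scans. E-scores from the Universal PBM Analysis Suite were given to each ungapped eight-base word pooled with its reverse complement.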
row,Sequence,PBM E-score
1,AAGCTTGT,0.102
2,GCCGTCAA,-0.0115
3,CGAGCTTA,0.214
4,CCTGATCC,-0.1
5,AAATACCC,0.136
6,TATGGCAA,0.0518
7,CCTATCTC,-0.157
8,CTGGAGCA,-0.0242
9,GACGGCTC,-0.191
10,CCAGTTAG,-0.0417
11,CTGCCCAG,-0.179
12,CTGCTTAA,0.0117
13,GGCTAGAC,-0.118
14,CGGCAACG,0.0924
15,CAGCTAAG,0.0783
16,CTGAAGTA,0.0255
17,ACAACGTG,-0.0612
18,ATGGTTAG,0.136
19,CTCCACAC,-0.122
20,GCAAATCC,0.132
21,AGCATCCA,-0.168
22,CGGTAATC,-0.105
23,CTATCCTA,-0.0982
24,GCCGCCAC,-0.217
25,CTGCAAAG,0.0553

row,Sequence,PBM E-score
1,GGGGAGCA,-0.403
2,AACCGGAG,-0.00163
3,GCCTGTTA,-0.167
4,AGATGAAG,-0.278
5,GGCAACCA,0.123
6,AGGGGCTG,0.163
7,ATTTCTTC,0.23
8,ACTCATGG,-0.0232
9,CCGTAGCC,-0.233
10,ACTTACTG,-0.0123
11,CTCGAACA,0.0819
12,CAATTGAC,0.137
13,AGTTCTAC,-0.0875
14,ACCGACCG,-0.066
15,CCATTGCA,-0.0333
16,ATTTGGCA,0.109
17,GAGACTCA,0.114
18,CCACCGCC,-0.121
19,GGATACCA,0.0336
20,GATACCGA,-0.114
21,GAGAGTAC,-0.103
22,AAAGCCTC,-0.186
23,AGGGAGTC,-0.133
24,AAGGTCGT,0.0718
25,TATGCCAA,-0.0304

row,Sequence,PBM E-score
1,CCGGTGAA,0.00995
2,CGGAGCTA,-0.00607
3,AGGTGGCA,-0.159
4,AGTGGAGC,-0.12
5,ATAAATCA,0.194
6,GCATTAGA,0.11
7,CCCTGCAC,-0.0891
8,GCGCCGAC,-0.137
9,CTACGGAA,0.0189
10,AACTTGAC,0.0523
11,AGGTGCTC,-0.323
12,CCACTTAA,0.00388
13,ACAGTTGC,0.0412
14,ATTTACCA,0.182
15,CCGCTTCC,-0.0312
16,AGCCCCAC,-0.15
17,AAACTCGC,-0.0694
18,AAGAGATC,-0.062
19,CATCTACG,0.0801
20,GCAGAGGA,0.0638
21,GGGCTGGA,-0.0401
22,CGTTCAAG,0.0453
23,ACAGTGGC,0.0426
24,CAGTAACG,0.0171
25,TACCTCGA,0.015

row,Sequence,PBM E-score
1,TCCCATAA,-0.089
2,AACACAGT,0.0635
3,CCGTGACG,0.0325
4,AATTGGCG,0.0732
5,AGGGGAAA,-0.149
6,AACTGCGC,-0.0153
7,AAGATTGT,0.0724
8,ATTACTCC,0.0689
9,GTAGCCAC,-0.0635
10,GATGATGA,-0.0136
11,AAGATTTG,0.0678
12,CAACGTCC,-0.178
13,CTATTTGC,-0.0458
14,GAGTAGGA,-0.0293
15,AAGATATC,0.172
16,CAACTAGA,-0.183
17,GCGGCTTA,0.227
18,GTCAAATA,0.111
19,CTTATATA,0.331
20,AAATTACA,0.191
21,CGCACTTC,-0.184
22,CCTCGTTA,-0.104
23,ACTATGCG,-0.127
24,CACGGCTC,-0.0342
25,GCGTACAA,0.0865

row,Sequence,PBM E-score
1,ACTCAGCG,0.148
2,GGGCAAGA,0.0533
3,CTCGCATC,-0.0326
4,AGCATGAA,0.0622
5,AATGGTCT,-0.0157
6,ATGACCTC,-0.125
7,GATTAGAA,0.0793
8,CCGTTTAC,0.146
9,CATGTACA,0.00541
10,CTTCAGAC,-0.00671
11,CTATGTTA,0.0633
12,AAGTGTGC,0.125
13,CACTACCA,0.029
14,GCTGTTAC,-0.0804
15,GTAGAGAC,-0.175
16,AACCAACT,0.0417
17,ATTTGGTC,0.139
18,ACATAACC,-0.0477
19,CCTTTTGA,-0.0567
20,CAGCGTGG,-0.154
21,ACGCATCC,-0.189
22,CTTTCAGC,-0.0777
23,GCCGAGAA,-0.0344
24,AGTTTCTA,-0.148
25,CTCCAAAA,-0.0998

row,Sequence,PBM E-score
1,CAAGCACC,-0.23
2,GACTCGAC,-0.231
3,CTTACCTA,0.0732
4,TCGATTAA,0.301
5,AGTGCGCC,-0.0701
6,CGGCTATA,0.0801
7,AACCCCTT,-0.188
8,CTAGCGCC,-0.00359
9,ACCACACG,0.049
10,GCCTGGTA,0.0275
11,CATGGAGG,-0.186
12,GGTCTAAC,-0.0553
13,CACTGTGA,-0.0187
14,CTCTTGAA,-0.138
15,CGACGGGA,0.11
16,AGTAGTAA,0.0579
17,AGATATCG,-0.00054
18,AGGGACCG,-0.352
19,ATGACTAG,-0.129
20,AGGAGCGA,-0.09
21,ATTGGTCA,0.103
22,ATCCGGCA,0.143
23,AATTAGAC,0.0936
24,AGTCGAGA,0.125
25,ATCATCGA,0.0835

# Quoted from the listing.
# Value for AGTCGAGA under PBM E-score: 0.125
# Value for CTAGCGCC under PBM E-score: -0.00359
# Value for AACCCCTT under PBM E-score: -0.188
# Value for GACTCGAC under PBM E-score: -0.231
# Value for CTTACCTA under PBM E-score: 0.0732
# Value for AGGGACCG under PBM E-score: -0.352

# Carrying on:

row,Sequence,PBM E-score
1,TACGCAAA,-0.0262
2,ATAGAACG,0.174
3,CAACGATC,0.0755
4,TCAACGGA,0.0289
5,AAAGGCAG,0.0302
6,TAGTGGCA,-0.0829
7,AAGGACCT,-0.0949
8,CGGTTAAG,-0.0177
9,AGTGAATC,-0.0986
10,CCGATCTC,0.0279
11,CGGTACAG,0.0652
12,GCCAGTCA,-0.0356
13,ACTCAGTC,-0.0615
14,CGATGACG,-0.04
15,GCAAGAGC,0.00627
16,CACATCCG,0.0581
17,GAATCCCC,-0.252
18,AAAACATG,0.0118
19,CAGTTACA,-0.00475
20,GCAGGGCA,0.0614
21,ACGCTCAG,-0.172
22,AGCATAAT,0.172
